The values that follow are results of earlier work, collected in publication PMC9146934 (Membranes, 2022).

Some test systems named below: A. pisum RDL1ad; A. pisum RDL1bd; A. pisum RDL2b.
What all share (conditions): read-out: EC50 for GABA; cited from earlier work

Consider `NCCCC(=O)O` [GABA, γ-aminobutyric acid], for which the EC50 with A. pisum RDL1ad is 23 ± 2 µM; with A. pisum RDL1bd it was 51 ± 9.1 µM; with A. pisum RDL2b, 28 ± 5.4 µM.
